{"source": "PubChem BioAssay AID493014", "about": "(National Center for Advancing Translational Sciences (NCATS), 2011)", "assay": "qHTS Assay to Find Inhibitors of Chronic Active B-Cell Receptor Signaling", "conditions": "ABC-DLBCL IkBa-CBG/CBR reporter, luminescence ratio (green luciferase fused to IkBa over red control in TMD8 lymphoma cells), 4 h", "outline": "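Compounds up to 46 uM were incubated four hours with TMD8 cells whose green CBG68 luciferase is fused to IkappaBalpha; red CBR luminescence normalised the signal, and concentration-effect curves were fitted to fusion, red and ratio data.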", "key": {"[1]": {"conditions": "measured here: CBR red luminescence, cell number"}, "[2]": {"conditions": "measured here: IkBa-CBG green luminescence"}}, "note": "The list shows a part of the results. These are further read-outs of the screen, such as a control signal, another cell line or another target. No call is given for them. Compounds called inactive in the main read-out are mostly missing here. Words in brackets tell the shape of the fitted curve; partial curves, single points and poor fits give uncertain potencies.", "data": [{"compound": "CCCC(=O)Nc1ccc(C2C(=O)c3ccccc3C2=O)cc1", "values": [{"measurement": "AC50", "setting": "[1]", "value": "35.5 µM [rising, single point]"}]}, {"compound": "CCNC(=O)c1ccc(NS(=O)(=O)c2ccc3[nH]c(=O)[nH]c3c2)cc1", "values": [{"measurement": "AC50", "setting": "[1]", "value": "11.2 µM [falling, partial curve, poor fit]"}]}, {"compound": "Cc1cc(C)c(O)c(-c2cc(C(=O)Nc3c(C)n(C)n(-c4ccccc4)c3=O)[nH]n2)c1", "values": [{"measurement": "AC50", "setting": "[1]", "value": "8.91 µM [falling, partial curve, poor fit]"}]}, {"compound": "CC(C)N=c1scc(-c2ccco2)n1/N=C/c1ccc(O)c(O)c1", "values": [{"measurement": "AC50", "setting": "[1]", "value": "35.5 µM [falling, single point]"}]}, {"compound": "COc1ccc(-c2nnc(SCC(=O)c3ccc(NC(C)=O)cc3)o2)cc1OC", "values": [{"measurement": "AC50", "setting": "[1]", "value": "3.98 µM [rising, partial curve, poor fit]"}]}, {"compound": "Cc1ccc(C2c3c(-c4ccccc4O)n[nH]c3C(=O)N2Cc2ccncc2)cc1", "note": "(stereo unspecified)", "values": [{"measurement": "AC50", "setting": "[1]", "value": "20.6 µM [falling, single point]"}]}, {"compound": "O=C(CCl)Nc1ccc(N=Nc2ccccc2)cc1", "values": [{"measurement": "AC50", "setting": "[1]", "value": "20.6 µM [falling, partial curve]"}]}, {"compound": "CCN(CC)S(=O)(=O)c1ccc(OC)c(NC(=S)Nc2cccc(C)c2)c1", "values": [{"measurement": "AC50", "setting": "[1]", "value": "14.6 µM [rising, partial curve, poor fit]"}]}, {"compound": "CCn1c(O)c2ccc(C(=O)N=NC(=O)c3ccccc3)cc2c1O", "values": [{"measurement": "AC50", "setting": "[1]", "value": "12.6 µM [falling, partial curve, poor fit]"}]}, {"compound": "COc1cc(-c2cc(=O)c3ccccc3o2)ccc1O", "values": [{"measurement": "AC50", "setting": "[1]", "value": "10 µM [falling, partial curve, poor fit]"}]}, {"compound": "Cc1cc(C)cc(N(C(=O)c2csnn2)C(C(=O)NC(C)(C)C)c2cccnc2)c1", "note": "(stereo unspecified)", "values": [{"measurement": "AC50", "setting": "[1]", "value": "25.1 µM [rising, single point]"}]}, {"compound": "CC[C@@]12C(=O)N(c3cccc(F)c3)C(=O)N1[C@H](c1ccc(Cl)cc1)[C@@H]1C(=O)N(C3CCCCC3)C(=O)[C@@H]12", "values": [{"measurement": "AC50", "setting": "[1]", "value": "23.1 µM [falling, single point]"}]}, {"compound": "CC(C)c1ccc(/C=C/C(=O)NC2CCCCC2)cc1", "values": [{"measurement": "AC50", "setting": "[1]", "value": "29.1 µM [rising, single point]"}]}, {"compound": "Cc1ccc2cc(/C=N/Nc3nc4ccccc4[nH]3)c(Cl)nc2c1", "values": [{"measurement": "AC50", "setting": "[1]", "value": "9.2 µM [falling, partial curve, poor fit]"}]}, {"compound": "CCOc1ccc(C(=O)NCC(=O)NCCCn2nc(C)cc2C)cc1OCC", "values": [{"measurement": "AC50", "setting": "[1]", "value": "0.1 µM [rising, full curve, poor fit]"}]}, {"compound": "CC(=O)N1CCc2cc(S(=O)(=O)NCCC(=O)NCCc3ccc(C)cc3)ccc21", "values": [{"measurement": "AC50", "setting": "[1]", "value": "29.1 µM [rising, single point]"}]}, {"compound": "Cc1ccc(SCC(=O)N(C)CC(=O)Nc2cccc(F)c2)cc1", "values": [{"measurement": "AC50", "setting": "[1]", "value": "3.66 µM [rising, partial curve, poor fit]"}]}, {"compound": "O=C(COC(=O)c1cc(Cl)cc(Cl)c1)NCCN1C(=O)CSC1=O", "values": [{"measurement": "AC50", "setting": "[1]", "value": "4.11 µM [rising, full curve, poor fit]"}]}, {"compound": "O=C(OCC(=O)N1CCOCC1)c1ccccc1OCc1ccc(Cl)cc1", "values": [{"measurement": "AC50", "setting": "[2]", "value": "8.2 µM [falling, partial curve, poor fit]"}]}, {"compound": "CC(C)OC(=O)c1ccc(COC(=O)c2cnccn2)cc1", "values": [{"measurement": "AC50", "setting": "[1]", "value": "20 µM [rising, partial curve, poor fit]"}]}, {"compound": "CCOC(=O)NC(=O)COC(=O)CCCSc1nc2ccccc2s1", "values": [{"measurement": "AC50", "setting": "[2]", "value": "0.251 µM [rising, full curve, poor fit]"}]}, {"compound": "CCCCCCc1c(O)c2ccccc2[nH]c1=O", "values": [{"measurement": "AC50", "setting": "[1]", "value": "2.31 µM [rising, partial curve, poor fit]"}]}, {"compound": "Cc1ccccc1NC(=O)C1CC(=O)n2ncnc2N1", "note": "(stereo unspecified)", "values": [{"measurement": "AC50", "setting": "[1]", "value": "8.91 µM [falling, partial curve, poor fit]"}]}, {"compound": "CC[C@]12c3[nH]c4ccc(Cl)cc4c3CCN1C(=O)[C@@H](CC(=O)NCCc1ccccn1)C[C@@H]2C(=O)N1CCN(C(=O)c2ccco2)CC1", "values": [{"measurement": "AC50", "setting": "[1]", "value": "0.00517 µM [falling, full curve, poor fit]"}]}, {"compound": "Oc1ccc2c(ccc3[nH]cnc32)c1", "values": [{"measurement": "AC50", "setting": "[1]", "value": "3.55 µM [falling, single point]"}]}, {"compound": "O=C(COC(=O)c1ccco1)Nc1ccccc1[N+](=O)[O-]", "values": [{"measurement": "AC50", "setting": "[1]", "value": "15.8 µM [rising, single point]"}]}, {"compound": "Cc1ccccc1-c1cc(C(=O)Nc2sc(C(=O)OC(C)C)c(C)c2C#N)c2ccccc2n1", "values": [{"measurement": "AC50", "setting": "[1]", "value": "35.5 µM [falling, single point]"}]}, {"compound": "Cc1ccccc1NC(=O)CC1C(=O)Nc2ccccc2N1CC(=O)N(C)C1CCS(=O)(=O)C1", "note": "(stereo unspecified)", "values": [{"measurement": "AC50", "setting": "[1]", "value": "6.51 µM [falling, partial curve, poor fit]"}]}, {"compound": "S=c1sc2c(N3CCN(Cc4ccccc4)CC3)ncnc2n1-c1ccccc1", "values": [{"measurement": "AC50", "setting": "[1]", "value": "29.1 µM [falling, single point]"}]}, {"compound": "C/C(CCC(C)C)=N\\NC(=O)COc1ccccc1-c1ccccc1", "values": [{"measurement": "AC50", "setting": "[1]", "value": "3.98 µM [rising, full curve]"}, {"measurement": "AC50", "setting": "[2]", "value": "5.62 µM [falling, full curve]"}]}, {"compound": "O=C(/C=C/c1ccccc1)Nn1cnc2ccccc2c1=O", "values": [{"measurement": "AC50", "setting": "[1]", "value": "6.51 µM [falling, partial curve]"}]}, {"compound": "COc1ccccc1-n1cnc2cc(NC(=O)c3ccco3)ccc21", "values": [{"measurement": "AC50", "setting": "[1]", "value": "7.31 µM [falling, partial curve, poor fit]"}]}, {"compound": "C=CCOc1cc(OC)c(OC)c(OC)c1", "values": [{"measurement": "AC50", "setting": "[1]", "value": "1.58 µM [rising, full curve, poor fit]"}]}, {"compound": "CCN1CCN(C(=O)c2cc3c(OC)c(OC)c(OC)cc3[nH]2)CC1", "values": [{"measurement": "AC50", "setting": "[1]", "value": "3.16 µM [rising, partial curve]"}]}, {"compound": "Cc1ccc(C(=O)Nc2ccccc2OC(F)F)cc1", "values": [{"measurement": "AC50", "setting": "[1]", "value": "29.1 µM [rising, single point]"}]}, {"compound": "COc1ccccc1OCc1nc(C#N)c(N2CCC(C(N)=O)CC2)o1", "values": [{"measurement": "AC50", "setting": "[1]", "value": "6.51 µM [rising, single point]"}]}, {"compound": "COC(=O)c1cnn(-c2ccccc2)c1/C=N/NC(=S)Nc1ccccc1", "values": [{"measurement": "AC50", "setting": "[1]", "value": "3.98 µM [falling, full curve, poor fit]"}]}, {"compound": "CCc1ccc(NC(=O)N(CCCN2CCOCC2)Cc2cccs2)cc1", "values": [{"measurement": "AC50", "setting": "[1]", "value": "6.51 µM [falling, single point]"}]}, {"compound": "O=C(COC(=O)CCC1CCCCC1)Nc1ccc(OC(F)F)cc1", "values": [{"measurement": "AC50", "setting": "[1]", "value": "23.1 µM [rising, single point]"}]}, {"compound": "Cc1cccc(NC(=S)NC(=O)c2ccc(Br)o2)c1C", "values": [{"measurement": "AC50", "setting": "[1]", "value": "11.2 µM [rising, single point]"}]}]}
